From publication PMC5696344
Results are given in words; binding and its absence hold for the method and conditions named. In cells and extracts the contact can be indirect. These calls come from enrichment with a bait or labelling near it, and not all partners need be listed. For some of these results: Sequences can lack the tags named with a protein. Blank lines part the entries; values can stand above or below the molecule they belong to.

Chains of the proteins cited; added tags and fusions are not shown.
UniProt Q24572: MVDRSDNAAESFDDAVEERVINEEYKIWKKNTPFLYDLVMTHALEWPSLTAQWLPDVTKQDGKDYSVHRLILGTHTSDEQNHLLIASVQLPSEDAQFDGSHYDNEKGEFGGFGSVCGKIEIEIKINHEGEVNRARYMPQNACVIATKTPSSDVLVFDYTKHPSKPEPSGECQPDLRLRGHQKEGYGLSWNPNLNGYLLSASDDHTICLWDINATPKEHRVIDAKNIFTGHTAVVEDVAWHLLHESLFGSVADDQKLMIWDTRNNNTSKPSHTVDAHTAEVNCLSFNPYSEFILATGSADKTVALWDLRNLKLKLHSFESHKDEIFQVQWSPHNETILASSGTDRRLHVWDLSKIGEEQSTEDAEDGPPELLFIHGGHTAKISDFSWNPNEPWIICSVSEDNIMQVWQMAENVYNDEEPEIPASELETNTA

How the values were obtained:
[1] = target: Flag-tagged full-length Drosophila Ash1 (Drosophila) (UniProt Q9VW15); assay: affinity purification with mass spectrometry; Anti-Flag M2 affinity gel incubated with nuclear extract (Buffer C, 420 mM NaCl) of S2 cells stably expressing Flag-Ash1C or Flag-tagged full-length Ash1, overnight at 4 °C; washed with 500 mM KCl, 0.1% NP40; eluted with Flag peptide; SDS-PAGE, silver staining, MALDI-TOF/TOF of cut bands
[2] = target: T1, Flag-tagged truncated form of Drosophila Ash1 (Ash1C, amino acids 1146–2226) (Drosophila) (UniProt Q9VW15); assay: as above
T1 sequence: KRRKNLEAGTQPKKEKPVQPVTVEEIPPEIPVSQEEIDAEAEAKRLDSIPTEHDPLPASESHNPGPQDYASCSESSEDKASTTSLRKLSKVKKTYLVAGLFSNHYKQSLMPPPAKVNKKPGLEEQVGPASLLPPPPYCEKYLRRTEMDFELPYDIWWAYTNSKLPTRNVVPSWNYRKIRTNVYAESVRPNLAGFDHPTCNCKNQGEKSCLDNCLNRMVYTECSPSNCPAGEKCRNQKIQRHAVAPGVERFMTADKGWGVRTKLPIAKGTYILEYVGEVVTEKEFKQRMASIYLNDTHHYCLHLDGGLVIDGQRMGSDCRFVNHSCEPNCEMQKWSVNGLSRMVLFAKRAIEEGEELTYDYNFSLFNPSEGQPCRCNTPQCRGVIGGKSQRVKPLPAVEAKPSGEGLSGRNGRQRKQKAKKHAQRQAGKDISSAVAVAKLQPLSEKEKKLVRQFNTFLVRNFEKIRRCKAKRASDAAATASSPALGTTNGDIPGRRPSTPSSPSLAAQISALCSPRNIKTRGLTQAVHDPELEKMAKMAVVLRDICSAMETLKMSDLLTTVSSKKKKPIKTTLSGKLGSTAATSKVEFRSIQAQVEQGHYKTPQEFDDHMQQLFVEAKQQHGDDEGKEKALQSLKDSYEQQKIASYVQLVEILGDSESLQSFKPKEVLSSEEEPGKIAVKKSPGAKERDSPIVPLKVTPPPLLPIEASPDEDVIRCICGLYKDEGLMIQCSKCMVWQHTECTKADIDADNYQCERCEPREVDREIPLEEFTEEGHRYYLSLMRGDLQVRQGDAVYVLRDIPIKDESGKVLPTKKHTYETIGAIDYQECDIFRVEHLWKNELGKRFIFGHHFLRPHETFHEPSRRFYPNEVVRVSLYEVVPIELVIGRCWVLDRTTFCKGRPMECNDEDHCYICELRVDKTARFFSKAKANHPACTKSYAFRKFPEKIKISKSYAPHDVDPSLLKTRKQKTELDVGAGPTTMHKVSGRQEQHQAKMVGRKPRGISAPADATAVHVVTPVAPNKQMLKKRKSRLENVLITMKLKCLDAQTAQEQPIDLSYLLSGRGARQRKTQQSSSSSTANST

binding [1]: binds | binding [2]: binds
Molecule: Drosophila Nurf55 (from UniProt Q24572 1-430)

binding [1]: binds | binding [2]: binds
B1: Drosophila Mrg15 (protein, UniProt Q9Y0I1 1-424)
chain: MGEVKPAKVENYSTGTDANTLFVDGERVLCFHGPLIYEAKVLKTKPDATPVEYYIHYAGWSKNWDEWVPENRVLKYNDDNVKRRQELARQCGERSKKDNKKGSAKAKKMEQMRNESRASTPSKDSNTSQSTASSTPTTSAGPGSKSEAGSTGTTTTNSTANSTTSRAHRKSTQSTPSTARPGTPSDKKEDPAAAETTEEEGPVAPKKKRMSEQRPSLTGSDVAEKPLPPTTTPSTPTTEPAPCVESEEAYAAKVEVKIKIPDELKHYLTDDWYAVVREHKLLELPAKVTVQQISEQYLAHKKSVKSTSASKEVAINDVLDGIVEYFNVMLGSQLLYKFERTQYADVMQKHPDTPLSELYGSFHLLRLFVRLGSMLSYSALDQQSMQNLLTHVQDFLKFLVKNSSIFFSMSNFINVDPEYVRNAQ
